Experimental data: PMC4830966, “Molecular basis of the STIL coiled coil oligomerization explains its requirement for de-novo formation of centrosomes in mammalian cells” (Scientific Reports, 2016)
Results are given in words; binding and its absence hold for the method and conditions named. Binding seen in cells or lysates may run through a third protein. Some binding calls cover weakened binding; strength is not graded here. Sequences can lack the tags named with a protein.

Molecular target: T1, Flag-STIL (WT full-length STIL protein) (human) (UniProt Q15468)
T1 sequence: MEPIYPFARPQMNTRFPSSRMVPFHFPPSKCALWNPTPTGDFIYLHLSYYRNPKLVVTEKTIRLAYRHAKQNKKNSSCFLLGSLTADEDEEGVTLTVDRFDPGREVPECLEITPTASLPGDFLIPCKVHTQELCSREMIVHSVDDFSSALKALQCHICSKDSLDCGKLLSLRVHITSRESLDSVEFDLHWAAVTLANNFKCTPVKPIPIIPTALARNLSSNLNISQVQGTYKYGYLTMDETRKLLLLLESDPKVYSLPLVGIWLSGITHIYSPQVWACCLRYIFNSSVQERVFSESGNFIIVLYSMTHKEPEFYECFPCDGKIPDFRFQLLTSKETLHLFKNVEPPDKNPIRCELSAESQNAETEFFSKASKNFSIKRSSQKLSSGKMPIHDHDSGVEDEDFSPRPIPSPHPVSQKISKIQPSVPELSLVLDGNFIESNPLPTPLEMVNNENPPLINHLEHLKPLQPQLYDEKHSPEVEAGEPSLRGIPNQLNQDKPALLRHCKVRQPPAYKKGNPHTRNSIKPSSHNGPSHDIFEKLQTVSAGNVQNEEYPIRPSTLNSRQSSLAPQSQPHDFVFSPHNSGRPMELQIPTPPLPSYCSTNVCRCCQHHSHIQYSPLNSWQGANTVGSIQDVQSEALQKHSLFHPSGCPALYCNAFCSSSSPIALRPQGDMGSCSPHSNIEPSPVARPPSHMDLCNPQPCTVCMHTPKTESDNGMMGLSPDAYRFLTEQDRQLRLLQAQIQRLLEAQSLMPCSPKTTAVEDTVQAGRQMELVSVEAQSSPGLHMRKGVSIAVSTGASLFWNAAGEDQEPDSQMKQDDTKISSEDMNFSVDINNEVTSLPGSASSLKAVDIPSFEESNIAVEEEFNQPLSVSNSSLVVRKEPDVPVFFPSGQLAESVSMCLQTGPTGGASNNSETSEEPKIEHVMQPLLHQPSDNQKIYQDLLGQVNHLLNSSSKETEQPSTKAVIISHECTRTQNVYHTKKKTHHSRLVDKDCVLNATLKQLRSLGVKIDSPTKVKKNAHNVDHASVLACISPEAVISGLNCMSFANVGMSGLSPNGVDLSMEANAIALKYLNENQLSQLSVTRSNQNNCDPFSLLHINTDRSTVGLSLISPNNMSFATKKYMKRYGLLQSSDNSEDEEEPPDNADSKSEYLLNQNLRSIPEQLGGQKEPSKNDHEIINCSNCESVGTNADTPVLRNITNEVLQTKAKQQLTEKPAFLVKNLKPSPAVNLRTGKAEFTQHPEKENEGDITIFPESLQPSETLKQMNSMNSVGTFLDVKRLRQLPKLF
Test: co-IP; Flag-tagged STIL constructs co-expressed with WT Strep-STIL in HEK293T; anti-Flag M2 agarose beads, 4 °C overnight; hypotonic gentle lysis buffer (5 mM Tris-HCl pH 7.5, 10 mM NaCl, 2 mM EDTA, 0.5% Triton-X100); immunoblot against Strep

B1: Strep-STIL (Strep-tagged WT STIL) (protein, UniProt Q15468 1-1287)
chain: MEPIYPFARPQMNTRFPSSRMVPFHFPPSKCALWNPTPTGDFIYLHLSYYRNPKLVVTEKTIRLAYRHAKQNKKNSSCFLLGSLTADEDEEGVTLTVDRFDPGREVPECLEITPTASLPGDFLIPCKVHTQELCSREMIVHSVDDFSSALKALQCHICSKDSLDCGKLLSLRVHITSRESLDSVEFDLHWAAVTLANNFKCTPVKPIPIIPTALARNLSSNLNISQVQGTYKYGYLTMDETRKLLLLLESDPKVYSLPLVGIWLSGITHIYSPQVWACCLRYIFNSSVQERVFSESGNFIIVLYSMTHKEPEFYECFPCDGKIPDFRFQLLTSKETLHLFKNVEPPDKNPIRCELSAESQNAETEFFSKASKNFSIKRSSQKLSSGKMPIHDHDSGVEDEDFSPRPIPSPHPVSQKISKIQPSVPELSLVLDGNFIESNPLPTPLEMVNNENPPLINHLEHLKPLQPQLYDEKHSPEVEAGEPSLRGIPNQLNQDKPALLRHCKVRQPPAYKKGNPHTRNSIKPSSHNGPSHDIFEKLQTVSAGNVQNEEYPIRPSTLNSRQSSLAPQSQPHDFVFSPHNSGRPMELQIPTPPLPSYCSTNVCRCCQHHSHIQYSPLNSWQGANTVGSIQDVQSEALQKHSLFHPSGCPALYCNAFCSSSSPIALRPQGDMGSCSPHSNIEPSPVARPPSHMDLCNPQPCTVCMHTPKTESDNGMMGLSPDAYRFLTEQDRQLRLLQAQIQRLLEAQSLMPCSPKTTAVEDTVQAGRQMELVSVEAQSSPGLHMRKGVSIAVSTGASLFWNAAGEDQEPDSQMKQDDTKISSEDMNFSVDINNEVTSLPGSASSLKAVDIPSFEESNIAVEEEFNQPLSVSNSSLVVRKEPDVPVFFPSGQLAESVSMCLQTGPTGGASNNSETSEEPKIEHVMQPLLHQPSDNQKIYQDLLGQVNHLLNSSSKETEQPSTKAVIISHECTRTQNVYHTKKKTHHSRLVDKDCVLNATLKQLRSLGVKIDSPTKVKKNAHNVDHASVLACISPEAVISGLNCMSFANVGMSGLSPNGVDLSMEANAIALKYLNENQLSQLSVTRSNQNNCDPFSLLHINTDRSTVGLSLISPNNMSFATKKYMKRYGLLQSSDNSEDEEEPPDNADSKSEYLLNQNLRSIPEQLGGQKEPSKNDHEIINCSNCESVGTNADTPVLRNITNEVLQTKAKQQLTEKPAFLVKNLKPSPAVNLRTGKAEFTQHPEKENEGDITIFPESLQPSETLKQMNSMNSVGTFLDVKRLRQLPKLF
- binding: binds
